{"source": "PubChem BioAssay AID1259254 (NCATS, 2017)", "aim": "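Genome-wide screen for genes that prevent DNA re-replication in cancer cells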 (primary screen)", "cells": "human HCT116 colorectal cancer cells", "reagents": "single siRNA against human genes", "duration": "3 days", "measurement": "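Nuclei stained with Hoechst and imaged; cell-cycle phase assigned by DNA content; G2 share scaled per plate, non-targeting siRNA 0%, GMNN siRNA 100%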", "direction": "G2 robust z-score: higher = more G2 cells, more excess DNA replication", "rule for the call": "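Active siRNAs have a G2 robust z of 5 or more median absolute deviations over the median, which in these data means about 38% or higher of GMNN control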", "note": "Shown is a random part of about 59,000 deposited reagents. About 1,550 of them (2.6%) were called active. 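G2 share is only a proxy for re-replication; each gene was hit by three separate siRNAs, and active genes were retested.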 Entries without a mark were called inactive. Reagents against one gene are numbered here. Not all columns of the deposit are shown. Not given: the amount of reagent."}
{"gene": "HSPA8P14 (heat shock protein family A (Hsp70) member 8 pseudogene 14)", "reagent": 1, "G2 robust z-score": 2.4}
{"gene": "HSPA8P14 (heat shock protein family A (Hsp70) member 8 pseudogene 14)", "reagent": 2, "G2 robust z-score": -0.209}
{"gene": "HSPA8P14 (heat shock protein family A (Hsp70) member 8 pseudogene 14)", "reagent": 3, "G2 robust z-score": -0.673}
{"gene": "DHFR2 (dihydrofolate reductase 2)", "reagent": 1, "G2 robust z-score": -0.274}
{"gene": "DHFR2 (dihydrofolate reductase 2)", "reagent": 2, "G2 robust z-score": -0.987}
{"gene": "DHFR2 (dihydrofolate reductase 2)", "reagent": 3, "G2 robust z-score": -0.453}
{"gene": "LMO2 (LIM domain only 2)", "reagent": 1, "G2 robust z-score": 0.698}
{"gene": "LMO2 (LIM domain only 2)", "reagent": 2, "G2 robust z-score": -0.991}
{"gene": "LMO2 (LIM domain only 2)", "reagent": 3, "G2 robust z-score": -0.759}
{"gene": "DPCD (deleted in primary ciliary dyskinesia homolog (mouse))", "reagent": 1, "G2 robust z-score": 1.95}
{"gene": "DPCD (deleted in primary ciliary dyskinesia homolog (mouse))", "reagent": 2, "G2 robust z-score": 1.54}
{"gene": "DPCD (deleted in primary ciliary dyskinesia homolog (mouse))", "reagent": 3, "G2 robust z-score": 3.21}
{"gene": "PCNA (proliferating cell nuclear antigen)", "reagent": 1, "G2 robust z-score": 0.0976}
{"gene": "PCNA (proliferating cell nuclear antigen)", "reagent": 2, "G2 robust z-score": -0.98}
{"gene": "PCNA (proliferating cell nuclear antigen)", "reagent": 3, "G2 robust z-score": 1.1}

Part of the list above, set out differently.
| gene | reagent | G2 robust z-score |
| --- | --- | --- |
| HSPA8P14 (heat shock protein family A (Hsp70) member 8 pseudogene 14) | 2 | -0.209 |
| HSPA8P14 (heat shock protein family A (Hsp70) member 8 pseudogene 14) | 3 | -0.673 |

The list goes on:
{"gene": "PPP1R11 (protein phosphatase 1 regulatory inhibitor subunit 11)", "reagent": 1, "G2 robust z-score": 1.24}
{"gene": "PPP1R11 (protein phosphatase 1 regulatory inhibitor subunit 11)", "reagent": 2, "G2 robust z-score": 1.1}
{"gene": "PPP1R11 (protein phosphatase 1 regulatory inhibitor subunit 11)", "reagent": 3, "G2 robust z-score": -1.06}
{"gene": "PDE7B-AS1 (PDE7B antisense RNA 1)", "reagent": 1, "G2 robust z-score": -1.07}
{"gene": "PDE7B-AS1 (PDE7B antisense RNA 1)", "reagent": 2, "G2 robust z-score": -0.511}
{"gene": "PDE7B-AS1 (PDE7B antisense RNA 1)", "reagent": 3, "G2 robust z-score": 0.197}
{"gene": "ZBTB45 (zinc finger and BTB domain containing 45)", "reagent": 1, "G2 robust z-score": 1.27}
{"gene": "ZBTB45 (zinc finger and BTB domain containing 45)", "reagent": 2, "G2 robust z-score": 0.84}
{"gene": "ZBTB45 (zinc finger and BTB domain containing 45)", "reagent": 3, "G2 robust z-score": -1.03}
